Data from PubChem BioAssay AID652054 (National Center for Advancing Translational Sciences (NCATS), 2013).
Out of some 360,000 compounds screened, about 9,100 (2.5%) were called active. Inconclusive means that the source gave no clear call. Such entries were picked first, then a sample of the others. Cut-off read from the data, not from the text of the source: active = max response below about -50%; inconclusive = no clear call, values can overlap the other calls; inactive = above that.

Sequences of proteins named here, by UniProt entry; tags and fusion partners are left off.
UniProt P35462, whole entry, looked up: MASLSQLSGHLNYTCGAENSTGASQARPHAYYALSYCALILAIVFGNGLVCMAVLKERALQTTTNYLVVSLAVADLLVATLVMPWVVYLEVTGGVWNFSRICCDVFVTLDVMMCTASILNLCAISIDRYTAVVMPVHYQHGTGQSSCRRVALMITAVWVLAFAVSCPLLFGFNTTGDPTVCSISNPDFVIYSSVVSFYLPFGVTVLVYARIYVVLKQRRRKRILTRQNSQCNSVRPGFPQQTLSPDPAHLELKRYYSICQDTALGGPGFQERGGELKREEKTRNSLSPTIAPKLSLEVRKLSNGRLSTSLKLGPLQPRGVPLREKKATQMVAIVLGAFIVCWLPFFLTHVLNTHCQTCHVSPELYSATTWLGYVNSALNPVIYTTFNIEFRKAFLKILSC

These compounds were tested against D(3) dopamine receptor (Homo sapiens) (UniProt P35462) (assay: qHTS of D3 Dopamine Receptor Antagonist: qHTS). Settings: D3R cells, DiscoveRx beta-arrestin luminescence, antagonist mode; stronger effect = lower value.
Method in brief: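 Cells plated overnight at 1500 cells/well, then exposed to library compounds with dopamine controls for 90 minutes at 37 degrees C. DiscoveRx reagent added for 30–60 minutes at room temperature; luminescence read, quantitative HTS format.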
% is set by controls: 0 for no effect and ±100 for the full control effect.

Max response, negative = inhibition, inconclusive:
O=C(N1CCOCC1)N(Cc1cccs1)C1CCCC1 -35.1%, COc1cccc2sc(N(CCN(C)C)C(=O)/C=C/c3cccs3)nc12 -31.8%, COC(=O)N1C(=O)[C@](c2ccccc2)(C2CCCCC2)N1C(=O)OC -31.5%, Cc1cc(-n2[nH]c(C)c(C)c2=O)nc(-c2ccccc2O)n1 -45.9%, Cc1ccc(-c2nc3ccc(Cl)cn3c2CC(C)(C)C)cc1 -30.7%, COc1ccc(-c2coc3cc(OC)cc(OC)c3c2=O)cc1 -31.6%, CC1CCN(c2ccc(NC(=O)c3ccc([N+](=O)[O-])o3)cc2)CC1 -48.4%, CC(C)C[C@@H](CO)N1CCN(Cc2cccc(C#N)c2)CCC1=O -36.7%, CCCC(=O)C1=C(O)C(C(=O)OC)C(C)(C)CC1=Nc1ccccc1 (centres undefined) -41.9%, Cc1ccccc1OCC(=O)Nc1ccc2[nH]ncc2c1 -36.1%, CC(C)(C)NC(=O)C(c1ccccn1)N(C(=O)C1CSC(=O)C1)c1ccccc1F (centres undefined) -40.3%, OCCC1CN(CC2CCCCC2)CCN1C1CCCC1 (centres undefined) -49.8%, CN(Cc1ccncn1)C(=O)C1CCC(=O)N(Cc2cccc(C(F)(F)F)c2)C1 (centres undefined) -35.8%, CC(Sc1ccccc1)C(=O)Nc1ccccc1C(=O)N1CCOCC1 (centres undefined) -35.9%, COc1ccc(-c2nn(-c3ccccc3)cc2CNC[C@H]2O[C@@H](n3ccc(=O)[nH]c3=O)[C@H](O)[C@@H]2O)cc1 -36%, NCCCCCc1nnc(SCC(=O)c2ccc(Cl)cc2)o1 -30.8%, COCC(=O)N1CCC2CC1c1c(-c3ccc(C(F)(F)F)cc3)cccc12 (centres undefined) -42.3%, COc1ccc2nc(C)cc(Nc3ccccc3OC)c2c1 -46.1%, CCCCN1C(=O)C(CC(=O)NCC2CCCCC2)CC(C(=O)N2CCOCC2)=C1C (centres undefined) -34.6%, CCc1n[nH]c(=S)n1/N=C/c1c[nH]c2ccc(Br)cc12 -33.1%, O=S1(=O)CCOC[C@H](c2ccccc2)N1Cc1cccc(F)c1 -32.3%, CSCCC(NS(=O)(=O)c1ccccc1F)C(=O)OCc1ccccc1Cl (centres undefined) -30.6%, COc1ccc(NC(=O)C2CSC3c4ccccc4C(=O)N23)cc1 (centres undefined) -31.3%, CCC(=O)Nc1ccc2nc(C)n(CC(=O)Nc3ccccc3)c(=O)c2c1 -32.3%, N#Cc1nc(-c2cccc3ccccc23)oc1NCCN1CCCCC1 -30.9%, CCn1c(=O)cc(OCC(=O)NC(C)c2ccc3c(c2)OCCO3)c2ccccc21 (centres undefined) -34.9%, O=C(O)Cc1c(-c2ccccc2)c2cc(Cl)ccc2[nH]c1=O -47.7%, COC(=O)CSc1nnc(COc2ccc3ccccc3c2)o1 -33.9%, CC(C)[C@@H](C(=O)NC1CCN(Cc2ccccc2)CC1)N1C(=O)N2CCc3c([nH]c4ccccc34)[C@@]2(C)C1=O -41.5%, Nn1c(SCC(=O)NC2CCCCC2)nnc1-c1ccc(Cl)cc1 -35%, CCOc1cccc(CN2CCCC(N3CCc4ccccc4C3)C2)c1O (centres undefined) -39.5%, CN(C)CCCNC(=O)c1ccc(CN(c2ccccc2)S(C)(=O)=O)cc1 -33.8%, COc1ccc(CNCC(=O)Nc2cc(OC)cc(OC)c2)cc1 -34%, O=C(O)C(C(O)c1ccccc1)[n+]1ccccc1 (centres undefined) -44.7%, CC(=O)N1CN(Cc2ccccn2)Cc2c1sc1c2CCCC1 -39.2%, CCOc1ccc(NC(=O)C2C3C=CC4(CN(C(C(=O)OC)C(C)C)C(=O)C24)O3)cc1 (centres undefined) -39.8%, Fc1ccc(C(c2nnnn2C2CCCC2)N2CCc3ccccc32)cc1 (centres undefined) -30.7%, COC(=O)c1[nH]c2ccc(C)cc2c1NC(=O)CCN1CCN(Cc2ccc3c(c2)OCO3)CC1 -45.9%, CCCNC(=O)N1CCN(S(=O)(=O)c2ccc(C)c(C)c2)CC1 -42.5%, CCOc1cc(C(=O)NCc2ccc3c(c2)OCO3)cc(OCC)c1OCC -33.9%, CCOC(=O)c1sc(=S)n(-c2ccc(Cl)cc2)c1SC -45.1%, COc1cccc(/C=N/Nc2snc(SC)c2C#N)c1O -31.9%, C=CCOc1c(CNc2ncn[nH]2)cccc1OCC -31.1%, CCOC(=O)CNC(=O)Nc1cc(C(C)(C)C)nn1-c1ccccc1 -39.2%, O=C(N1CCN(c2ccccn2)CC1)N1c2ccccc2Sc2ccccc21 -34.1%, CC(=O)Nc1ccc(S(=O)(=O)Nc2nc(CN3CCOCC3)nc3sc4c(c23)CCCC4)cc1 -40.1%, O=C(N1CCOCC1)N1CCN(c2ccccc2F)CC1 -30.6%, CCN(CCO)CC1CCCC2CCCCC21 (centres undefined) -37.9%, CC(=O)Nc1ccc(S(=O)(=O)Nc2cccc(NC(=O)C(C)(C)C)c2)cc1 -34.4%, CCc1ccc(NC(=O)CCC(=O)c2ccc(C)cc2)cc1 -31.3%, N=C1SC(c2ccccc2)C(=O)N1c1ncc(Cc2ccccc2Cl)s1 (centres undefined) -30.9%, CCN1CCN(C/C(C)=C/c2ccccc2)CC1 -43.1%, CCOC(=O)CSc1nnc(-c2ccc(NS(=O)(=O)c3ccc(C)cc3)cc2)o1 -47%, COc1ccc(CCN2C(=O)C(O)=C(C(=O)c3ccco3)C2c2cccs2)cc1OC (centres undefined) -41.7%

Max response, negative = inhibition, inactive:
Cn1nc(C(=O)NCCc2ccc(Cl)cc2)c2c1-c1ccccc1S(=O)(=O)C2 -23%, CCCNC(=O)C1(C)CCCN(CCOc2ccccc2)C1 (centres undefined) 0.826%, COc1cc(SC#N)ccc1N=Cc1c(C)[nH]n(-c2ccc(C)cc2C)c1=O 35.7%, COc1ccc(NC(=O)CCCNC(=O)Cn2cnc3sc4c(c3c2=O)CCCC4)c(OC)c1 0.852%, O=C(Nc1nccs1)c1ccccc1[N+](=O)[O-] 0.0135%, Cc1ccc(S(=O)(=O)CS(=O)(=O)c2ccc(C)cc2)cc1 3.49%, OCCC1CN(Cc2cccn2-c2nccs2)CCN1Cc1ccc(F)c(F)c1 (centres undefined) -14.5%, NC(=O)C1=C(N=C2CCCCC2)CCCC1 2.91%, CCOc1cc(OCC)cc(C(=O)N2CCC[C@H]2C(=O)N2CCC[C@H]2C(=O)N[C@H](C)c2ccccc2)c1 14.5%, COc1ccccc1NC(=O)Nc1nc(CC(=O)N2CCN(c3ccccc3OC)CC2)cs1 0.0936%, Cc1nn(-c2ccccc2)c(N)c1N=Nc1cccnc1 -9.69%, Cc1n[nH]c(C)c1CCNC(=O)C1CCC(=O)N(Cc2ccccc2F)C1 (centres undefined) 10%, C=CCNC(=O)CN1C(=O)CSc2ccc(S(=O)(=O)N3CCOCC3)cc21 18.9%, COc1cccc(-c2sc3cc(OC)c(OC)cc3c2-c2ccc(OCCN3CCCCC3)cc2)c1 10.5%, CN(C)CCOC(=O)c1ccc2c(c1)S(=O)(=O)c1ccccc1C2=O 0.0701%, O=C(CCc1nc2ccccc2s1)OCC(=O)c1ccccc1 -4.89%, CC1(C(=O)NS(=O)(=O)Cc2ccccc2C(F)(F)F)CCN1C(=O)C/C=C/c1ccccc1 (centres undefined) 26.1%, Cc1ccc(NC(=O)Cc2nn(C)c(=O)c3ccccc23)cc1F 13.7%, CC(O)(c1cccnc1)c1nc(-c2cc(F)cc(F)c2)cs1 (centres undefined) 0%, CC1CCCCN1S(=O)(=O)c1ccc(NC(=O)c2ccco2)cc1 (centres undefined) 2.57%

Max response, negative = inhibition, active:
c1ccc(-c2ccccc2OCCCCN2CCCCCC2)cc1 -86.1%, CCC(C)NCCOc1ccc(Br)cc1 (centres undefined) -67.8%, CN(C)CCNC(=O)Nc1cccc(Cl)c1Cl -70.3%, CC(=O)c1ccc(OCCCN2CCCCC2)cc1 -71.8%, Nc1nonc1-n1nnc(C(=O)N/N=C/C=C/c2ccccc2)c1CSC1=NCCS1 -50.1%, CCc1nc2c(OCC3CCCCC3)cccn2c1N(C)C(=O)c1ccccc1F -56.6%, Nc1nc(-c2ccccc2)c(N=Nc2ccccc2Cl)s1 -59.4%, COc1ccccc1Cc1c(-c2cccc(Br)c2)nc2ccc(Cl)cn12 -50.1%, O=C(CN1CCCCC1)Nc1cccc([N+](=O)[O-])c1 -62.1%, C=C(CN(C)C)C(=O)c1ccc(OC2OC(COC(C)=O)C(OC(C)=O)C(OC(C)=O)C2OC(C)=O)cc1 (centres undefined) -81.8%, c1ccc2c(c1)ccn1c(Cc3ccsc3)c(C3CCCCC3)nc21 -82.6%, CC(C)(C)c1ccc(/C=C(\c2nc3ccccc3[nH]2)S(=O)(=O)c2ccccc2)cc1 -65.6%, O=C(COC(=O)c1ccccc1O)NNC(=O)c1ccc(Br)cc1 -58.4%, CN(C)CCNC(=O)Cn1ccc2cc(S(=O)(=O)N3CCCCCC3)ccc21 -54.6%, Cc1cc2oc(=O)cc(CN3CCC(C)CC3)c2cc1C -71.5%
